# PubChem BioAssay AID1688 (National Center for Advancing Translational Sciences (NCATS), 2009)
# In all, about 220,000 compounds went through this assay and about 2,400 (1.1%) were called active. Inconclusive means that the source gave no clear call. Such entries were picked first, then a sample of the others. Calls come from the whole dose curve; as a rule, active = well fitted inhibition curve with a large enough effect; inconclusive = small, poorly fitted or top-dose-only effect, or effect the other way; inactive = no such curve, though single readings can be large or run the other way. A potency beside an inconclusive call is a rough fit, not a confirmed value.
# Experiment: qHTS Multiplex Assay to Identify Dual Action Probes in a Cell Model of Huntington: Aggregate Formation (GFP); note: nearly all actives have a fitted effect of over 60% in size
# Settings: PC12 HttQ103-GFP aggregates, Acumen cytometry, 40 h; activity change, negative = inhibition: at 46.1 µM (top of the series) unless noted
# How it was run: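 Huntingtin Q103 exon 1–GFP aggregates in induced PC12 cells (100 nM tebufenozide) were quantified by cytometry from lysates, with compounds dosed in titration.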
# % is set by controls: 0 for no effect and ±100 for the full control effect; potency is the fitted concentration of half-maximal effect.
Structure (SMILES),Potency,"activity change, negative = inhibition"
Cc1ccc(NC(=S)NCCSc2ccc(Cl)cc2)cc1,"inconclusive: 22.4 µM [inhibitor, single point]",
COc1ccc(N2CC(NC(=O)N3CCc4ccccc43)CC2=O)cc1OC (stereo not drawn),inactive,
Cc1c(C(=O)N2CCCCCC2)oc2ccccc12,"inconclusive: 35.5 µM [inhibitor, single point]",
O=C(Nc1nnc(C2CC2)s1)c1ccc(Cl)c(S(=O)(=O)N2CCc3ccccc3C2)c1,"inconclusive: 14.1 µM [inhibitor, single point]",
CCCCCCCCNC(C)C(O)c1ccc(SC(C)C)cc1 (stereo not drawn),inactive,
CN(C)CCCNS(=O)(=O)c1ccc(N2CCC(c3ccc(Cl)cc3)=N2)cc1,"inconclusive: 31.6 µM [inhibitor, single point]",
CCn1c(=O)n(CC)c2cc(S(=O)(=O)N3CCc4ccccc43)ccc21,"inconclusive: 31.6 µM [inhibitor, single point]",
COc1ccc(Cn2c(=O)sc3ccccc32)cc1OC,active: 0.631 µM,
O=C(COc1ccc(Cl)cc1)Nc1ccc(C(=O)NCc2cccnc2)cc1,"inconclusive: 2 µM [inhibitor, full curve]",
COc1cccc(OC)c1C(=O)N1CCN(Cc2ccccc2C)CC1,"inconclusive: 8.91 µM [inhibitor, partial curve]",
CCC1Oc2ccc(C)cc2N(CC(=O)NCc2ccccc2OC)C1=O (stereo not drawn),"inconclusive: 31.6 µM [inhibitor, single point]",
N#Cc1cc(C(=O)c2cc(Br)ccc2O)cn(Cc2ccccc2)c1=O,"inconclusive: 8.91 µM [inhibitor, partial curve]",
Cc1[nH]c(=S)c(C#N)c(C)c1C(=O)Nc1ccccc1,inactive,
CCN(CC)S(=O)(=O)c1ccc(Cl)nc1,inactive,
Clc1ccccc1CN1CCN(/N=C/C=C\c2ccco2)CC1,inactive,
O=C(NCCN1CCOCC1)c1ccc2c(c1)N(Cc1ccc(Cl)cc1)CCS2,,inactive: -10.9% [at 9.22 µM]
N/C(Cc1ccc(Cl)c(Cl)c1)=N\OC(=O)c1ccc(Br)o1,,inactive: -4.42% [at 9.22 µM]
COc1cccc(CN2CCN(S(=O)(=O)c3ccc(Br)cc3)CC2)c1,"inconclusive: 35.5 µM [inhibitor, single point]",
Cc1occc1C(=O)Nc1ccc(S(=O)(=O)N2CCCC2)cc1,active: 3.98 µM,
COc1ccc(CC(=O)NNC(=O)Cc2ccc(OC)cc2)cc1,"inconclusive: 2.82 µM [activator, partial curve]",
OC1(c2ccc(F)cc2)CSC(=Nc2cccnc2)N1Cc1ccco1 (stereo not drawn),"inconclusive: 14.1 µM [inhibitor, single point]",
CCOC(=O)CSc1nc(C)c(C(C)=O)cc1C#N,inactive,
O=C1NC(=O)C(=C2CCCCCC2)S1,"inconclusive: 8.91 µM [activator, single point]",
COc1ccccc1C(=O)C1CCCN(C(=O)c2cccc(-n3cccn3)c2)C1 (stereo not drawn),,inactive: 12% [at 9.22 µM]
O=C1CC(N(CCc2ccccc2)C(=S)Nc2ccccc2)C(=O)N1c1ccccc1 (stereo not drawn),"inconclusive: 35.5 µM [inhibitor, single point]",

Structure (SMILES),Potency,"activity change, negative = inhibition"
CCn1c(=O)c(C(=O)Nc2ccccc2S(N)(=O)=O)c(O)c2ccccc21,,inactive: 3.86% [at 9.22 µM]
COc1cccc2c1C(CO)N1C(C#N)C3CC(C(=O)O)C(C1C2)N3C (stereo not drawn),active: 1.12 µM,
Cn1c(=O)cc(SCC(=O)N2CCCC2)c2cc(Cl)ccc21,"inconclusive: 2.82 µM [activator, single point]",
O=c1[nH]c2ccc(S(=O)(=O)N3CCN(c4ccccc4F)CC3)cc2s1,"inconclusive: 35.5 µM [inhibitor, single point]",
C=CCNc1nc(Nc2ccc(-c3nc4ccccc4o3)cc2)nc(N2CCOCC2)n1,"inconclusive: 5.62 µM [inhibitor, single point]",
CC(Oc1ccc(Cl)cc1Cl)C(=O)NCc1ccncc1 (stereo not drawn),"inconclusive: 20 µM [inhibitor, partial curve]",
Cc1ccc(N(C(=O)Cc2c[nH]c3ccccc23)C(C(=O)NC2CCCCC2)c2ccco2)cc1 (stereo not drawn),"inconclusive: 28.2 µM [inhibitor, single point]",
Cc1ccc(NC(=O)CCC(=O)OCC(=O)c2ccc(Oc3ccc([N+](=O)[O-])cc3)cc2)cc1C,"inconclusive: 5.62 µM [inhibitor, single point]",
Nc1cccc(-n2cccc2)c1,,inactive: -13.6% [at 9.22 µM]
CCN(CC)S(=O)(=O)c1ccc2oc(C(=O)N3CCCCCC3)c(C)c2c1,"inconclusive: 8.91 µM [inhibitor, partial curve]",
CCOC(=O)c1[nH]cnc1C(=O)Nc1ccccn1,inactive,
COc1ccc(C(=O)CN2C(=O)c3ccccc3C2=O)c(OC)c1C,"inconclusive: 0.562 µM [inhibitor, partial curve, poor fit]",
Cc1ccc(/C=N/n2c(COc3ccccc3)n[nH]c2=S)s1,inactive,
O=C(Nc1nccs1)c1sc2cc(Cl)ccc2c1Cl,inactive,
Cc1cc(C)cc(NC(=O)Cn2c(=O)oc3cc(S(=O)(=O)N4CCC(C)CC4)ccc32)c1,"inconclusive: 20 µM [inhibitor, single point]",
CC(C)n1c(SCC(N)=O)nc2c1c(=O)[nH]c(=O)n2C,inactive,
CCn1c(CSc2nc3ccccc3s2)nc2ccccc21,"inconclusive: 22.4 µM [inhibitor, single point]",
O=C(Nc1ccc(Cl)cc1)NC1CCCCC1Cc1ccco1 (stereo not drawn),"inconclusive: 35.5 µM [inhibitor, single point]",
COc1cccc(/C=N/NC(=O)CN(CCc2ccccc2)S(=O)(=O)c2ccc(NC(C)=O)cc2)c1,"inconclusive: 35.5 µM [inhibitor, single point]",
COc1ccc(C(=O)C2CCN(C(=O)c3ccc(C)cc3)CC2)cc1,inactive,
Cc1cc(=O)n2[nH]c(C)c(-c3ccc(Cl)cc3)c2n1,"inconclusive: 14.1 µM [inhibitor, single point]",
Cc1ccc(-n2ncc3c(N4CCCC4)ncnc32)c(C)c1,"inconclusive: 14.1 µM [inhibitor, partial curve]",
Cc1cc(S(=O)(=O)N2CCN(c3ccccc3O)CC2)c(C)s1,inactive,
Cc1ccnc(NC(=O)c2ccc3c(c2)OCO3)c1,,inactive: 15.2% [at 9.22 µM]
O=C(CSc1nc(-c2ccco2)cc(C(F)(F)F)n1)Nc1ccccc1C(F)(F)F,"inconclusive: 3.16 µM [activator, single point]",

Structure (SMILES),Potency,"activity change, negative = inhibition"
O=C(/C=C/c1ccccc1)c1ccccn1,inactive,
COCCn1nnnc1C(c1cccs1)N1CCN(c2cccc(C(F)(F)F)c2)CC1 (stereo not drawn),"inconclusive: 1.58 µM [activator, partial curve]",
Cc1nn(-c2ccccc2)c2c1C(c1ccccc1)C(C#N)=C(N)O2 (stereo not drawn),inactive,
CC1CCc2c(sc(NC(=O)CCCn3cnc([N+](=O)[O-])n3)c2C(N)=O)C1 (stereo not drawn),inactive,
CC(=O)Oc1ccc(OC(C)=O)c(SCCCCCN2CCOCC2)c1,"inconclusive: 35.5 µM [inhibitor, single point]",
Cc1ccc(C2C(C(=O)c3sc(C)nc3C)=C(O)C(=O)N2CCN(C)C)o1 (stereo not drawn),"inconclusive: 0.0891 µM [inhibitor, partial curve, poor fit]",
COc1ccc(C2c3ccc4ccccc4c3Oc3ncn(CCCO)c(=N)c32)cc1 (stereo not drawn),,inactive: -10.3% [at 9.22 µM]
O=C(/C=C/c1ccco1)Nc1nc(-c2ccccn2)cs1,"inconclusive: 35.5 µM [inhibitor, partial curve]",
Cn1cc(C(=O)N2CCN(c3ccccn3)CC2)c(=O)c2cc(S(=O)(=O)N3CCOCC3)ccc21,"inconclusive: 11.2 µM [activator, partial curve]",
COc1ccc(CN(C)C(=S)Nc2ccc(OC(F)F)cc2)cc1,"inconclusive: 12.6 µM [inhibitor, single point]",
Cc1cccc(C)c1NC(=O)c1ccc([N+](=O)[O-])s1,"inconclusive: 5.01 µM [inhibitor, partial curve]",
Cc1ccc(-c2nnc3ccc(SCC(=O)N4CCCc5ccccc54)nn23)cc1,"inconclusive: 10 µM [inhibitor, partial curve]",
COc1ccc(C(=O)N/C(=C\c2cccs2)c2nc3ccccc3[nH]2)cc1OC,,inconclusive: 57.7% [activator]
CCN(CC)S(=O)(=O)c1ccc2c(c1)nc(CCC(=O)Nc1ccccc1Cc1ccccc1)n2CC,inactive,
CC(C)n1c(SCC(=O)Nc2nc3c(s2)CCCC3)nc2c1c(=O)n(C)c(=O)n2C,active: 12.6 µM,
O=C(N/N=C/c1cn(-c2ccccc2)nc1-c1cc2ccccc2o1)c1ccncc1,active: 10 µM,
O=[N+]([O-])c1ccc2nc(SCc3ccccc3Cl)sc2c1,"inconclusive: 35.5 µM [inhibitor, single point]",
COC(=O)Cc1ccc(N(Cc2ccccc2F)S(=O)(=O)c2ccc(Cl)cc2)cc1,"inconclusive: 17.8 µM [activator, partial curve]",
O=C(O)C1CC(=O)N(Cc2ccc(F)cc2)C1 (stereo not drawn),"inconclusive: 3.98 µM [inhibitor, single point]",
c1ccc(-c2noc(CSc3nnnn3C3CCCCC3)n2)cc1,inactive,
COc1ccc(C(=O)N/N=C/c2c(CO)cnc(C)c2O)cc1,active: 31.6 µM,
Cc1ccc(-n2nnnc2SCC(=O)c2cc(C)n(CC3CCCO3)c2C)cc1 (stereo not drawn),inactive,
COc1ccc(NS(=O)(=O)c2ccc(Br)s2)cc1OC,"inconclusive: 12.6 µM [inhibitor, partial curve]",

# Part of the list above in order of count of non-hydrogen atoms, ascending.
Structure (SMILES),Potency,"activity change, negative = inhibition"
c1ccc(-c2noc(CSc3nnnn3C3CCCCC3)n2)cc1,inactive,
CC(=O)Oc1ccc(OC(C)=O)c(SCCCCCN2CCOCC2)c1,"inconclusive: 35.5 µM [inhibitor, single point]",
Cc1ccc(-n2nnnc2SCC(=O)c2cc(C)n(CC3CCCO3)c2C)cc1 (stereo not drawn),inactive,
